Results are given in words; binding and its absence hold for the method and conditions named. Binding seen in cells or lysates may run through a third protein. Some results given as binding are weak or reduced against the parent protein; the word gives no strength.
Biological target: Flag-NSUN2 (NOP2/Sun domain family member 2) (UniProt Q08J23)
Experiment: co-IP; Flag-tagged bait from transfected HEK293 lysate on Flag-M2 beads, 2 h at 4 °C; IP buffer 150 mM NaCl, 50 mM Tris-HCl pH 7.5, 1 % NP-40, 5 mM EDTA; endogenous partner detected by western blotting; cells with or without 10 or 20 mM lactate for 3 h (interaction strengthened by lactate)

Sequences of proteins named here, by UniProt entry; tags and fusion partners are left off.
UniProt Q08J23: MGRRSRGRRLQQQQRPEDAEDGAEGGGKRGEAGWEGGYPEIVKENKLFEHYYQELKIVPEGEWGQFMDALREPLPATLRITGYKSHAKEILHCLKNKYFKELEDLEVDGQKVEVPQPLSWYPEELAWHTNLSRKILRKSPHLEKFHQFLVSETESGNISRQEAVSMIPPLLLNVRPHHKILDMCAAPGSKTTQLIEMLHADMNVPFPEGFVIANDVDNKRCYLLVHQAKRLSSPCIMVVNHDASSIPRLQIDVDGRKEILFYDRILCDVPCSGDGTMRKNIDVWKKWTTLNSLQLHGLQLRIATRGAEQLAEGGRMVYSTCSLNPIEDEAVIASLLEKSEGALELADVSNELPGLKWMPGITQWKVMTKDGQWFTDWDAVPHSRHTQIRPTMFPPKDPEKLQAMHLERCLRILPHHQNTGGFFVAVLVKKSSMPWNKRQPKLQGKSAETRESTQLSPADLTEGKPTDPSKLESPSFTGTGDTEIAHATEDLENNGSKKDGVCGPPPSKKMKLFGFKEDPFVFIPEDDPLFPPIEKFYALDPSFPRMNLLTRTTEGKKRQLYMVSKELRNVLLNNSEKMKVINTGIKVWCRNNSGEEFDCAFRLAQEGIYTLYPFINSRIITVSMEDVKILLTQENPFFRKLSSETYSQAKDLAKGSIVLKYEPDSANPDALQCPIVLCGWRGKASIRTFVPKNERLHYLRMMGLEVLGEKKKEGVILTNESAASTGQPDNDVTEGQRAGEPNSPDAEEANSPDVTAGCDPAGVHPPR

Binder	binding
N-α-acetyltransferase 10 (NAA10), endogenous (enzyme, UniProt P41227 1-235) MNIRNARPEDLMNMQHCNLLCLPENYQMKYYFYHGLSWPQLSYIAEDENGKIVGYVLAKMEEDPDDVPHGHITSLAVKRSHRRLGLAQKLMDQASRAMIENFNAKYVSLHVRKSNRAALHLYSNTLNFQISEVEPKYYADGEDAYAMKRDLTQMADELRRHLELKEKGRHVVLGAIENKVESKGNSPPSSGEACREEKGLAAEDSGGDSKDLSEVSETTESTDVKDSSEASDSAS	binds
glutamate-cysteine ligase catalytic subunit (GCLC), endogenous (enzyme, UniProt P48506 1-637) MGLLSQGSPLSWEETKRHADHVRRHGILQFLHIYHAVKDRHKDVLKWGDEVEYMLVSFDHENKKVRLVLSGEKVLETLQEKGERTNPNHPTLWRPEYGSYMIEGTPGQPYGGTMSEFNTVEANMRKRRKEATSILEENQALCTITSFPRLGCPGFTLPEVKPNPVEGGASKSLFFPDEAINKHPRFSTLTRNIRHRRGEKVVINVPIFKDKNTPSPFIETFTEDDEASRASKPDHIYMDAMGFGMGNCCLQVTFQACSISEARYLYDQLATICPIVMALSAASPFYRGYVSDIDCRWGVISASVDDRTREERGLEPLKNNNYRISKSRYDSIDSYLSKCGEKYNDIDLTIDKEIYEQLLQEGIDHLLAQHVAHLFIRDPLTLFEEKIHLDDANESDHFENIQSTNWQTMRFKPPPPNSDIGWRVEFRPMEVQLTDFENSAYVVFVVLLTRVILSYKLDFLIPLSKVDENMKVAQKRDAVLQGMFYFRKDICKGGNAVVDGCGKAQNSTELAAEEYTLMSIDTIINGKEGVFPGLIPILNSYLENMEVDVDTRCSILNYLKLIKKRASGELMTVARWMREFIANHPDYKQDSVITDEMNYSLILKCNQIANELCECPELLGSAFRKVKYSGSKTDSSN	no binding

From article PMC11750563
